Our source for the binding values is PMC9068942.

By UniProt entry, the sequences of proteins in these tests, tags left out.
UniProt P26599: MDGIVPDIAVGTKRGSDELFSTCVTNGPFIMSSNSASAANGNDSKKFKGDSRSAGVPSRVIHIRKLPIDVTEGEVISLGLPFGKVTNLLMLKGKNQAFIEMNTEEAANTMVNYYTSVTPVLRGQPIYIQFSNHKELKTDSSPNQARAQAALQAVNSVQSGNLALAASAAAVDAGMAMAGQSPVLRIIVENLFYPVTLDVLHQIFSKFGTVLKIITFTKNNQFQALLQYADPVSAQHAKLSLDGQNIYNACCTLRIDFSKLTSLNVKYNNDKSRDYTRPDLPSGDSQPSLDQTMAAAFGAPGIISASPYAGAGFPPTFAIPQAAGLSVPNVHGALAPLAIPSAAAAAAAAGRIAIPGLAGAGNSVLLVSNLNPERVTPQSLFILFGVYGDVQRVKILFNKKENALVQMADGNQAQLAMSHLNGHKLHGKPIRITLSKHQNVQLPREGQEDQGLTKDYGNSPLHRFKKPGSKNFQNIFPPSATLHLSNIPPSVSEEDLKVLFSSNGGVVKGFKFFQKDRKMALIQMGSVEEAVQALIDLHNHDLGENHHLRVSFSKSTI

These are yes or no findings as the source states them, for the method shown. In cells and extracts the contact can be indirect. Some results given as binding are weak or reduced against the parent protein; the word gives no strength.

First the molecules themselves.
T1: NEK2 (human (endogenous in MDA-MB-231)) (UniProt P51955)
T1 sequence: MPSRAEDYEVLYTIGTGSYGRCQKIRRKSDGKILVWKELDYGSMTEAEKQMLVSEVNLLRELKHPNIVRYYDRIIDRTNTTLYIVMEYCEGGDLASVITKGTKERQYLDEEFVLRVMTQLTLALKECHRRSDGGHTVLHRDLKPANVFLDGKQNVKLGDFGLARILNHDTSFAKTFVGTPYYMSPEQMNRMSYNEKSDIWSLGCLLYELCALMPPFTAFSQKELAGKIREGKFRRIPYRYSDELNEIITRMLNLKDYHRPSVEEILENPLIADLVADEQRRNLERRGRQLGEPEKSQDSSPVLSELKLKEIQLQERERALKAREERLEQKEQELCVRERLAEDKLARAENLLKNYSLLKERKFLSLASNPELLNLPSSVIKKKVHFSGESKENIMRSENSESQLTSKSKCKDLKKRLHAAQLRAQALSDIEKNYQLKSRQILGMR

B1: QKI (protein, UniProt Q96PU8 1-341)
chain: MVGEMETKEKPKPTPDYLMQLMNDKKLMSSLPNFCGIFNHLERLLDEEISRVRKDMYNDTLNGSTEKRSAELPDAVGPIVQLQEKLYVPVKEYPDFNFVGRILGPRGLTAKQLEAETGCKIMVRGKGSMRDKKKEEQNRGKPNWEHLNEDLHVLITVEDAQNRAEIKLKRAVEEVKKLLVPAAEGEDSLKKMQLMELAILNGTYRDANIKSPALAFSLAATAQAAPRIITGPAPVLPPAALRTPTPAGPTIMPLIRQIQTAVMPNGTPHPTAAIVPPGPEAGLIYTPYEYPYTLAPATSILEYPIEPSGVLGAVATKVRRHDMRVHPYQRIVTADRAATGN
B2: hnRNPL (protein, UniProt P14866 1-589)
chain: MSRRLLPRAEKRRRRLEQRQQPDEQRRRSGAMVKMAAAGGGGGGGRYYGGGSEGGRAPKRLKTDNAGDQHGGGGGGGGGAGAAGGGGGGENYDDPHKTPASPVVHIRGLIDGVVEADLVEALQEFGPISYVVVMPKKRQALVEFEDVLGACNAVNYAADNQIYIAGHPAFVNYSTSQKISRPGDSDDSRSVNSVLLFTILNPIYSITTDVLYTICNPCGPVQRIVIFRKNGVQAMVEFDSVQSAQRAKASLNGADIYSGCCTLKIEYAKPTRLNVFKNDQDTWDYTNPNLSGQGDPGSNPNKRQRQPPLLGDHPAEYGGPHGGYHSHYHDEGYGPPPPHYEGRRMGPPVGGHRRGPSRYGPQYGHPPPPPPPPEYGPHADSPVLMVYGLDQSKMNCDRVFNVFCLYGNVEKVKFMKSKPGAAMVEMADGYAVDRAITHLNNNFMFGQKLNVCVSKQPAIMPGQSYGLEDGSCSYKDFSESRNNRFSTPEQAAKNRIQHPSNVLHFFNAPLEVTEENFFEICDELGVKRPSSVKVFSGKSERSSSGLLEWESKSDALETLGFLNHYQMKNPNGPYPYTLKLCFSTAQHAS

For this test, the target named is T1, NEK2 (human (endogenous in MDA-MB-231)). The experiment in a line: co-IP; nuclear extracts of MDA-MB-231 cells; anti-NEK2 antibody or control mouse IgG overnight at 4°C, Protein-G magnetic beads; washes with 20 mM HEPES pH 7.9, 15 mM MgCl2, 120 mM KCl, 0.2 mM EDTA, 25% glycerol; Western blot. (A western blot detects proteins with antibodies after separation by electrophoresis.)
For PTBP1 (from UniProt P26599 1-557), the binding result is listed as “binds”. For the molecule B1, the binding entry is “no binding”. The entry for B2 is “binds”.
